Some of these results come from one statement about several compounds together. For at least one compound, name, drawing or mass did not settle the structure.
Biological target: T1, human serotonin (5-HT) transporter (hSERT) (Homo sapiens, UniProt P31645)
T1 construct: expressed in transfected cells; host or cells: HEK 293 cells (Invitrogen), stably transfected
Experiment: Serotonin uptake transport inhibition ([3H]5-HT uptake in hSERT-transfected HEK 293 cells)
Format: cell-based
Details: read-out: IC50, inhibition of 5-HT uptake (SERT); screening at 1 μM and 10 μM (n=3); FIG. 9

Protein sequences, listed by entry. Tags and fused reporters are not part of them.
UniProt P31645, whole entry: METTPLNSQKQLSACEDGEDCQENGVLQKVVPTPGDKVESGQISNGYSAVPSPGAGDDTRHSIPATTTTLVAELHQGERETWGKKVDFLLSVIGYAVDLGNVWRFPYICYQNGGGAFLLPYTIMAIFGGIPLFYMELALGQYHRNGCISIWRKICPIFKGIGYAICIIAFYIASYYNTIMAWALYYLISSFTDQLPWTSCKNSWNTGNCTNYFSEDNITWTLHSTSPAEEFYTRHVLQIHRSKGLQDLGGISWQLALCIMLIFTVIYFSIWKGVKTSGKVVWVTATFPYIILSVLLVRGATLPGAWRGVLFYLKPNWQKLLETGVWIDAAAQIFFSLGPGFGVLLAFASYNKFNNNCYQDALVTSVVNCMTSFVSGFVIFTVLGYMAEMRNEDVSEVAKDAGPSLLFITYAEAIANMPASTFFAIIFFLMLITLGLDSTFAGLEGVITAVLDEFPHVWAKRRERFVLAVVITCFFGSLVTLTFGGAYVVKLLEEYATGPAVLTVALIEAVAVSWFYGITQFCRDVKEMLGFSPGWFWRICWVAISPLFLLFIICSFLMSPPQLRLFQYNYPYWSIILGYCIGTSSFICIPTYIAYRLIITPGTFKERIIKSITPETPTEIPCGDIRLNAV

C=C(c1ccc2c(c1)OCO2)C(C)NC.Cl (stereo not shown) [BME-MDMA, 2-(1,3-Benzodioxol-5-yl)-3-(methylamino) butene hydrochloride]
IC50: 1 to 10 µM

— US20250312309A1, “ALLYL-AND PROPARGYLAMINE-TYPE PHENE[…] T[…] TREATING MEDICAL DISORDERS” (Mind Medicine, Inc., priority 2023, published 2025)
